Library screening results

The values are deposited in ChEMBL (CHEMBL3988442, “University of Dundee, Small-Polar-MMV Screening Library” (2021)).

Values are the deposited “Percent Effect”, in %. The record does not define 0% and 100%; most values in the screen are far below 50% and negative numbers occur (in some assays of this library far below -100). Compounds were drawn at random from those tested, without regard to their results. A dash means the value is not listed here; it may have been measured.

Mtb growth Cornell: 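Whole-cell assay for inhibitors of Mycobacterium tuberculosis growth, labelled Cornell in the record; the read-out is not stated. The concentration is filed as 10 mM, unlikely as a test dose, so the dose is not known. Higher means stronger inhibition (inferred from two other growth screens of the library). Of about 53,000 compounds tested this way, about 900 (1.7%) reached 50% or more in at least one test.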
Mtb heat-shock: 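Assay on Mycobacterium tuberculosis, filed only as a heat shock assay from Cornell; the read-out is not stated. The concentration is filed as 10 mM, unlikely as a test dose, so the dose is not known. Higher reads as stronger inhibition (inferred: compounds with an IC50 in retests scored well above the rest). Of about 69,000 compounds tested this way, about 930 (1.4%) reached 50% or more in at least one test.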

| # | structure | Mtb growth Cornell | Mtb heat-shock |
|---|---|---|---|
| 1 | `CCc1nc(CSC2CCCN(c3cnn(C)c3)C2=O)cs1` (stereo not drawn) | -1.1% | -3.62% |
| 2 | `[H][C@]12CCN(C(=O)C(C)C)CC[C@@]1([H])S(=O)(=O)N(Cc1ccncc1)C2` | 6.837% | -7.679% |
| 3 | `CCCn1nc(C(=O)NCc2nnc3n2CCC3)ccc1=O` | -25.09% | -20.22% |
| 4 | `CCOCCN1CCN(Cc2cccc(C(=O)N(C)C)c2)CC1C` (stereo not drawn) | 12.55% | -8.122% |
| 5 | `CCN(C(=O)C1Cc2cc(Cl)ccc2O1)C1CC1` (stereo not drawn) | 4.207% | -8.676% |
| 6 | `Cc1nc(CC(=O)N2CCC(c3nn(C)c4ncccc34)CC2)cs1.Cl` | 5.217% | -9.764% |
| 7 | `CCc1noc(Cn2c(=O)c3c(C(F)(F)F)cc(C)nc3n2C)n1` | -1.431% | -0.04135% |
| 8 | `N#Cc1cc2c(=O)n(CC(O)C(F)(F)F)ccc2[nH]c1=O` (stereo not drawn) | - | -6.529% |
| 9 | `CCN(CC)CC[C@H]1CN(C(=O)C(C)(C)C)CC[C@H]1CC(=O)O` | - | -2.485% |
| 10 | `O=C(NCCN1CCOCC1)c1cc2c(s1)CCN2Cc1cccnc1` | 22.45% | -7.059% |
| 11 | `O=C(Cn1cc(C(=O)O)ccc1=O)NCc1ccc(F)c(Cl)c1` | - | -7.332% |
| 12 | `CC(Sc1nnnn1C1CCOCC1)C(=O)NC1CCCCC1` (stereo not drawn) | 6.687% | 0.1852% |
| 13 | `CCN(CC1CCOC1)C(=O)c1ccc(COc2ccccc2C#N)o1` (stereo not drawn) | 0.4507% | 1.708% |
| 14 | `COCCN1CCC2(CC1)CC(c1cccnc1)C(=O)N2C` (stereo not drawn) | 15.49% | 12.05% |
| 15 | `CCn1cnnc1C1CCN(C(=O)c2cc(OC)ccc2OC)CC1` | 3.295% | -16.27% |
| 16 | `CC(=O)Nc1ccc(Oc2ccc3c(c2)OCO3)nc1` | 12.25% | -3.058% |
| 17 | `CSCCC(NC(=O)c1ccccc1)C(=O)N(C)Cc1ccsc1` (stereo not drawn) | -11.84% | -21.02% |
| 18 | `CN(C)c1cc(C(F)(F)F)nc(N2CCCC2c2ccccn2)n1` (stereo not drawn) | 15.89% | 5.436% |
| 19 | `Cc1nc2oc(C(=O)N3CCOCC3)c(N)c2c2c1CCCC2` | -85.16% | 2.691% |
| 20 | `CN(C)c1cc2c(nn1)CCN(C(=O)c1cc3ccccc3o1)C2` | - | -11.2% |
| 21 | `CC(C)Cn1cc(NC(=O)c2cccc(N(C)C)c2)cn1` | 0.07153% | -4.172% |
| 22 | `CCOCC(=O)NCC(Cc1cccc(F)c1)n1cccc1` (stereo not drawn) | 19.05% | 21.69% |
| 23 | `O=C(O)C(F)(F)F.O=C(O)C(F)(F)F.c1ccc(OCc2n[nH]c3c2CN(Cc2cccs2)C3)nc1` | 16.87% | -14.5% |
| 24 | `CCCc1nc(N2Cc3cnn(Cc4ccc(F)cc4)c3C2)no1` | 41.1% | 12.14% |
| 25 | `O=S(=O)(c1ccc2c(c1)OCCO2)N1CCC(OCc2ccccn2)C1` (stereo not drawn) | 17.71% | 4.947% |
| 26 | `O=C(OC1CCC1)c1ncccc1OCC(F)(F)F` | -35.41% | 12.74% |
| 27 | `CN(C(=O)c1ccncc1)c1ccccc1S(C)(=O)=O` | 27.87% | 16.54% |
| 28 | `CC(C)Oc1ncc(C(=O)N2CCC(CC(N)=O)CC2)cc1Cl` | -4.173% | -19.48% |
| 29 | `O=C(CN1CCSCC1c1ccccc1)N1CCCC1` (stereo not drawn) | - | -13.99% |
| 30 | `Cn1ncc(C(=O)N2CCN(CCS(C)(=O)=O)CC2)c1Cl` | - | -22.2% |
| 31 | `CN(Cc1ccncc1)C1CC2(CCN(c3ncc(F)cn3)CC2)C1.O=C(O)C(F)(F)F.O=C(O)C(F)(F)F` | 20.47% | -9.738% |
| 32 | `O=C(O)C(F)(F)F.[H][C@]12CCC(=O)N(c3ccccc3)[C@@]1([H])CCN2c1ncccn1` | -0.8418% | 21.09% |
| 33 | `CN(Cc1cccc(-n2cccn2)c1)C(=O)c1ccnc(N)c1` | 0.07662% | -17.56% |
| 34 | `COc1ccccc1C(=O)NC[C@H]1COCc2nc3c(C)cccc3n21` | 18.89% | -41.18% |
| 35 | `O=C(CCc1ccc2c(c1)OCO2)N1CCCCC1Cn1cccn1` (stereo not drawn) | - | 3.42% |
| 36 | `Cn1cc(C(=O)N2CCCC(Cc3cccc4ncccc34)C2)cn1` (stereo not drawn) | - | -16.53% |
| 37 | `COc1ccc(CN2CCC3(CCCN(C)C3=O)C2)c(OC)c1C` (stereo not drawn) | 52.12% | 10.75% |
| 38 | `O=C(Nc1ncnc2c1CCC2)c1cccc(F)c1` | 0.9358% | -14.46% |
| 39 | `Cc1ccc(C#N)cc1NC(=O)NC1CCCN(c2ncccn2)C1` (stereo not drawn) | 22.42% | 13.32% |
| 40 | `[H][C@@]12CS(=O)(=O)C[C@]1([H])N(C(=O)c1cnccn1)CCN2CCC` | - | 0.6913% |
| 41 | `Cc1csc(C2(NC(=O)NCCN3CCOCC3)CCCC2)n1` | 32.62% | -3.083% |
| 42 | `CC(NC(=O)CCc1nc(-c2nnc[nH]2)no1)c1ccc(F)cc1F` (stereo not drawn) | - | -3.098% |
| 43 | `c1ccc(OC2CCCC2)c(CNC2CCc3ncnn3C2)c1` (stereo not drawn) | 6.59% | 13.35% |
| 44 | `CCNC(=O)c1ccnc(CC2COc3c(cccc3OC)C2)c1` (stereo not drawn) | -15.6% | -26.56% |
| 45 | `Cl.Nc1cccnc1N1CCCCCC1` | 72.92% | 12.05% |
| 46 | `[H][C@@]12CCN(Cc3ccoc3)C[C@@]1([H])O[C@H](C(=O)NC)C2` | -4.023% | 13.98% |
| 47 | `O=C(O)C(F)(F)F.[H][C@@]12CN(C)CCO[C@]1([H])CN(C(=O)COc1ccccc1OC)C2` | -15.08% | -33.87% |
| 48 | `CCC(NC(=O)c1nn(C)cc1C(=O)O)c1ccc(C)cc1C` (stereo not drawn) | -7.669% | -5.956% |
| 49 | `CC(C)N(CC1CCCN(CC(N)=O)C1)C(=O)OC(C)(C)C` (stereo not drawn) | - | 4.611% |
| 50 | `COc1ccccc1C(=O)NC(c1ccccn1)[C@H]1CC[C@H](CN)CC1` (stereo partly drawn) | - | 95.79% |
| 51 | `Cc1onc(N)c1S(=O)(=O)N1CCCCC1C` (stereo not drawn) | -9.785% | -39.55% |
| 52 | `Cc1cc(NC(=O)CN2CCN(c3nccs3)C(C)C2)on1` (stereo not drawn) | 22.95% | -5.227% |
| 53 | `O=C(Nc1ccc(Cl)cn1)C1CCN(CCc2ccccn2)CC1` | 10.92% | 0.2317% |
| 54 | `COCCN1CCC2(CC1)CC(NC(=O)C(C)C)c1ccccc1O2.O=C(O)C(F)(F)F` (stereo not drawn) | -22.14% | -7.376% |
| 55 | `O=C(O)C(F)(F)F.O=C(O)C(F)(F)F.O=C(O)C(F)(F)F.[H][C@@]12CN(Cc3ccoc3)CCO[C@]1([H])CN(Cc1cccc(C)n1)C2` | 8.809% | -34.19% |
| 56 | `CCc1nnc2n1CCN(C(C(N)=O)c1ccc(F)cc1)C2` (stereo not drawn) | 0.04022% | -4.954% |
| 57 | `Cl.O=C(NCC(F)(F)F)C1=NOC2(CCCNC2)C1` (stereo not drawn) | 5.639% | -3.523% |
| 58 | `CN(Cc1ccco1)C(=O)NCc1nnc2n1CCC2` | 7.461% | -0.1615% |
| 59 | `Cn1cnnc1C1CCCN(C(=O)c2cc(Cl)cc(Cl)c2)C1` (stereo not drawn) | - | -12.62% |
| 60 | `CN1CCN(Cc2ccc(Cl)cc2)CC1C(=O)O` (stereo not drawn) | -26.39% | 5.012% |
| 61 | `[H][C@@]12CN(C3CCOCC3)C[C@]1([H])N(CCc1cccc(Cl)c1)C(=O)O2` | -8.828% | -9.489% |
| 62 | `CC(C)c1nn(C)c(Cl)c1CNCC(O)c1cccc(F)c1.Cl` (stereo not drawn) | - | -0.6832% |
| 63 | `CCc1noc(CCCC(=O)N2CCCC(c3ccn[nH]3)C2)n1` (stereo not drawn) | 1.457% | -9.987% |
| 64 | `COCCCSc1ccc(NCc2scnc2C)cc1` | 22.43% | 9.894% |
| 65 | `CN(C)c1ccccc1C(=O)N1CCCC(c2ccc(C(=O)O)cc2)C1` (stereo not drawn) | 0.1542% | -11.56% |
| 66 | `CCNC(=O)CN1CCC(c2cc(OC)cc(OC)c2)C1` (stereo not drawn) | -3.819% | -21.68% |
| 67 | `O=C(O)C(F)(F)F.O=C(O)C(F)(F)F.[H][C@@]12CCCO[C@]1([H])[C@H](N(C)C(C)C)CN(Cc1csc(C)n1)C2` | 1.515% | -32.13% |
| 68 | `O=C(O)C(F)(F)F.O=C(O)C(F)(F)F.[H][C@@]12CO[C@@H](CN3CCOCC3)[C@]1([H])CCN(Cc1ccsc1)C2` | - | -18.73% |
| 69 | `CCNC(=O)N1CCCC(c2noc(CC)n2)C1` (stereo not drawn) | - | -8.777% |
| 70 | `CC(C)NC[C@@]1(COc2ccccc2)C[C@@H](O)[C@@H](O)C1.Cl` | - | -14.17% |
| 71 | `Cc1ccc(N2CCCC(NCC3=Cc4ccccc4OC3)C2)nn1` (stereo not drawn) | - | -7.413% |
| 72 | `c1coc(-c2nc(CN3CCn4c(nnc4C4CC4)C3)cs2)c1` | -17.51% | -3.925% |
| 73 | `Cc1cc(O)ncc1NS(=O)(=O)c1cccc(F)c1F` | 15.6% | -21% |
| 74 | `CNS(=O)(=O)CCNC(=O)c1coc(COc2ccc(F)cc2)n1` | -5.23% | -3.194% |
| 75 | `COCc1cncc2c1CCN(C(=O)c1ccsc1)C2` | -3.791% | -22.2% |
| 76 | `c1ccc2c(N3CCCCC3Cn3cncn3)ncnc2c1` (stereo not drawn) | -3.551% | 11.17% |
| 77 | `CN(Cc1ccc(N2CCOCC2)cc1)Cc1noc(C(C)(C)C)n1` | -16.14% | -21.61% |
| 78 | `N#Cc1cccc(CNc2cc(CO)ccc2Cl)c1` | 5.76% | -0.8155% |
| 79 | `Cc1ccc(O)c(C(=O)N2CCC3(CCCNC3)C2)c1` (stereo not drawn) | -32.79% | 21.51% |

Once more, the final 6:

structure,Mtb growth Cornell,Mtb heat-shock
CNS(=O)(=O)CCNC(=O)c1coc(COc2ccc(F)cc2)n1,-5.23%,-3.194%
COCc1cncc2c1CCN(C(=O)c1ccsc1)C2,-3.791%,-22.2%
c1ccc2c(N3CCCCC3Cn3cncn3)ncnc2c1 (stereo not drawn),-3.551%,11.17%
CN(Cc1ccc(N2CCOCC2)cc1)Cc1noc(C(C)(C)C)n1,-16.14%,-21.61%
N#Cc1cccc(CNc2cc(CO)ccc2Cl)c1,5.76%,-0.8155%
Cc1ccc(O)c(C(=O)N2CCC3(CCCNC3)C2)c1 (stereo not drawn),-32.79%,21.51%